Data reported in article PMC6081450.
Results are given in words; binding and its absence hold for the method and conditions named. Binding seen in cells or lysates may run through a third protein. Some entries that bind do so weakly or less than the wild type.

By UniProt entry, the sequences of proteins in these tests, tags left out.
UniProt P03372: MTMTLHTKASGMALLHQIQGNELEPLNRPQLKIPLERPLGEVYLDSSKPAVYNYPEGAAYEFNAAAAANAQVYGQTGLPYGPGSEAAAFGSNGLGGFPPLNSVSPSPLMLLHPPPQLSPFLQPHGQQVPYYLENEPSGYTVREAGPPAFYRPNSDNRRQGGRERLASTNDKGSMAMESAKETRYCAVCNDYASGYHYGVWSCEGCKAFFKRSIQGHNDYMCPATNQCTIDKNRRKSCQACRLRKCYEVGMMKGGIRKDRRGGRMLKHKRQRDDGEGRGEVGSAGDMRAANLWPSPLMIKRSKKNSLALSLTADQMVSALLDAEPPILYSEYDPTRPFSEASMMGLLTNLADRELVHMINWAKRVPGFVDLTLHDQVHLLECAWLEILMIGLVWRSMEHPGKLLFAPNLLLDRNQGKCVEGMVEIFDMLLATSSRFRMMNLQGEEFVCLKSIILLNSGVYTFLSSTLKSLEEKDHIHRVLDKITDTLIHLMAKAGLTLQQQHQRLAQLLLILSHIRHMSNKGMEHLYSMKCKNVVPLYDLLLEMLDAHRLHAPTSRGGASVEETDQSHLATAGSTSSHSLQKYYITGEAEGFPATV
UniProt Q15648: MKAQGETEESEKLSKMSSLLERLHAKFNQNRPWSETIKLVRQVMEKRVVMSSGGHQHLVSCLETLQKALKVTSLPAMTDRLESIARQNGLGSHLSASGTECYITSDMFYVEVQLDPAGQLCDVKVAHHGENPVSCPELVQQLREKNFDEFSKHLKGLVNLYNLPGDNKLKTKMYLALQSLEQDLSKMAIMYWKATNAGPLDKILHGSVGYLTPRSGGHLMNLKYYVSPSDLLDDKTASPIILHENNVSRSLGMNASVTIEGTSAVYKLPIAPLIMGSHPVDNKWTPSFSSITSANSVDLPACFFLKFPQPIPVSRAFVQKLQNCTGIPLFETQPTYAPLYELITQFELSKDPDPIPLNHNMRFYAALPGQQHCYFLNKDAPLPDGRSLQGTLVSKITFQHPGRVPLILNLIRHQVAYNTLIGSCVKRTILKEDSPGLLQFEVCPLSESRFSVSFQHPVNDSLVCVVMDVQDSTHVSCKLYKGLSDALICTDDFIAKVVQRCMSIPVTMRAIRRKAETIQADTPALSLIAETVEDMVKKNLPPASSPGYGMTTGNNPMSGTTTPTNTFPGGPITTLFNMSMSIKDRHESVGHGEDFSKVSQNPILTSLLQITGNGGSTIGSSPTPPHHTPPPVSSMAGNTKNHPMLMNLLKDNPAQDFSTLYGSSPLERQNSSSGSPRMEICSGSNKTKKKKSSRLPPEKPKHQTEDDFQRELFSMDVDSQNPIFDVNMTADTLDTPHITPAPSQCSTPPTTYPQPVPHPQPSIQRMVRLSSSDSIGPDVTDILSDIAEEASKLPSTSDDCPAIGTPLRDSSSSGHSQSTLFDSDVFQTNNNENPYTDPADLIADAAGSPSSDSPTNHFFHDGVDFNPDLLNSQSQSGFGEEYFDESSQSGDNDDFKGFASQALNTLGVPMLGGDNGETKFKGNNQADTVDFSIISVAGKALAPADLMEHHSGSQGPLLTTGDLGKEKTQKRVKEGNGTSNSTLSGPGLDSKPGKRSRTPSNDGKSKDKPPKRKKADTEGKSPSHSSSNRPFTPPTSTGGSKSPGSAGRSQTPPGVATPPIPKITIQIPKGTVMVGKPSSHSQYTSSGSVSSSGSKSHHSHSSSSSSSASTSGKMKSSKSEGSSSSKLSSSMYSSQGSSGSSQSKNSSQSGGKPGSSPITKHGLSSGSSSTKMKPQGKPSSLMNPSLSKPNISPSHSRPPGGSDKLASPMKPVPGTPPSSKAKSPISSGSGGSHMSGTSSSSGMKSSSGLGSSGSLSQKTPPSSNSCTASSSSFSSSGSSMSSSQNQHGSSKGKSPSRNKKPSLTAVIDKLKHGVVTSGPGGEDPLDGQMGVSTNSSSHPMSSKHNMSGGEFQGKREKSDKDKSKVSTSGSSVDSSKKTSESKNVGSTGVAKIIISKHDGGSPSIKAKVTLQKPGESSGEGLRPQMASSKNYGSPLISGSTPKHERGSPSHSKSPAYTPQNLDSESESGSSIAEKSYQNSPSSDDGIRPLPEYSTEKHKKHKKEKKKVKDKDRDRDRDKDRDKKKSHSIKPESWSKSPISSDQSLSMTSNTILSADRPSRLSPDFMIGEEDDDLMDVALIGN

Target: estrogen receptor-alpha (ER-α) (human (endogenous in MCF7)) (UniProt P03372)
Assay: co-IP; MCF7 cells starved for estrogen for 3-4 days, then estrogen (0-10 nM) for 45 min; cells crosslinked and lysed in RIPA buffer; ER-α antibody with protein A-sepharose beads for pull down, western blot with MED1-specific antibody

- binding: binds
Substance: Mediator complex subunit 1 (MED1) (from UniProt Q15648 1-1581)
